Here are results for two sequences from article PMC6795808.

Amino acid sequences for entries named in this document (tags omitted). A change or cut given only in a name is not applied to a line headed by its entry.
UniProt Q9Y6M1: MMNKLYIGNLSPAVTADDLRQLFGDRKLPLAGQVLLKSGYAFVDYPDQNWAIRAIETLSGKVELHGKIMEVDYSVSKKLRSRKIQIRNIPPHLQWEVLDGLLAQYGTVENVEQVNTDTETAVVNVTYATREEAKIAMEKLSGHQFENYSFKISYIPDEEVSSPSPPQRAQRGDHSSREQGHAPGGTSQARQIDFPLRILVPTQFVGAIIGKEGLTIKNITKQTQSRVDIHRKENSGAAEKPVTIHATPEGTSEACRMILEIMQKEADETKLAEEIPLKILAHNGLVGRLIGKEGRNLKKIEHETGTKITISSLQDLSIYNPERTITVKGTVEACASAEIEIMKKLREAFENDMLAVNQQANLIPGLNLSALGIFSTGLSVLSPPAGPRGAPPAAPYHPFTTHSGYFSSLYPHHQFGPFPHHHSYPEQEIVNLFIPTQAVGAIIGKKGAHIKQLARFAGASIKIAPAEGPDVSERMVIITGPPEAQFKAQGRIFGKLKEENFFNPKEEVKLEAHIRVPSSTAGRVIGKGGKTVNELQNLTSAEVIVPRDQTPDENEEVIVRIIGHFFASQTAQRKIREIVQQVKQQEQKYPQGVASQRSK

The exact form of at least one protein or probe is not confirmed. Weaker means in comparison with the reference protein, sequence or condition of that experiment.

The target in one data set is YTHDC1 WT (UniProt Q96MU7). The data set is described as follows: EMSA. Conditions: LightShift Chemiluminescent RNA EMSA kit binding buffer (composition not stated), 30 min, room temperature; 6% native PAGE, 0.5x TBE; recombinant protein; protein details: FLAG; label: 3'-biotin. A general note: Mobility shift assays separate free from complexed probe on a gel.
In another data set the target is IGF2BP2 WT (UniProt Q9Y6M1). The data set is described as follows: EMSA. The note with it: LightShift Chemiluminescent RNA EMSA kit binding buffer (composition not stated), 30 min, room temperature; 6% native PAGE, 0.5x TBE; recombinant protein; protein details: FLAG; label: 3'-biotin.

“AUAAGGUAUCCUGAAGAGCU [circNSUN2-m6A mutant type]”: in the data set with YTHDC1 WT, the binding result is on record as “binds more weakly”.
As for “CCUCACCACAAGGUAUCCUG [circNSUN2 mutant type (IGF2BP2 probe)]”, the binding result with IGF2BP2 WT is reported as “binds more weakly”.
